No constants are given. Whether binding was seen depends on the method and setting. Some entries that bind do so weakly or less than the wild type.
How the values were obtained:
[1] = target: T1, human Siglec-15 (Sialic acid-binding Ig-like lectin 15) on in vitro differentiated human osteoclasts (human) (UniProt Q6ZMC9); test: imaging (Opera Phenix) of AF647-conjugated antibody on in vitro differentiated human osteoclasts
T1 sequence: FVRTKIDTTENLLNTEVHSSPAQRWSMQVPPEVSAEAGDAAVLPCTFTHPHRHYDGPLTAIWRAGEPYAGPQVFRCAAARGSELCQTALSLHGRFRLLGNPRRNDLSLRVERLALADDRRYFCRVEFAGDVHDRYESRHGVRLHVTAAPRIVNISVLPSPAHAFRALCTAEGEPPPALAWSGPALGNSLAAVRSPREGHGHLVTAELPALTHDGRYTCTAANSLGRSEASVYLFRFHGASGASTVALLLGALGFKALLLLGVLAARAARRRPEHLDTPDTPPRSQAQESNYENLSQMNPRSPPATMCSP

[2] = target: T1, human Siglec-15 (Sialic acid-binding Ig-like lectin 15) on in vitro differentiated human osteoclasts (human); test: fluorescence imaging of AF-647 conjugated antibody on human osteoclasts

binding [1]: binds
binding [2]: binds
B1: mouse anti-human Siglec-15 monoclonal antibody 1H3 (antibody, V domains shown)
VH: QVQLKESGPGLVAPSQSLSITCTVSGFSLSNYGVHWVRQPPGKGLEWLVLIWSDGSTTYNSALKSRLSISKDNSKSQVFLKMNSLQTGDTAMYYCARHPYDDYSGYYYTMDYWGQGTSVTVSS
VL: DIQMTQASSSLSVSLGGRVTITCKASDHINNWLAWYQQKPGNAPRLLISGATSLETGVPSRFSGSGSGKDYTLSITSLQTEDVATYYCQQYWSSPLTFGAGTKLELK

— patent US20240400678A1
